Results on one substance are retold here after patent US20160289326A1.

Sequences of proteins named here, by UniProt entry; tags and fusion partners are left off. Residues count along the entry.
UniProt Q07954, residues 3332-3778: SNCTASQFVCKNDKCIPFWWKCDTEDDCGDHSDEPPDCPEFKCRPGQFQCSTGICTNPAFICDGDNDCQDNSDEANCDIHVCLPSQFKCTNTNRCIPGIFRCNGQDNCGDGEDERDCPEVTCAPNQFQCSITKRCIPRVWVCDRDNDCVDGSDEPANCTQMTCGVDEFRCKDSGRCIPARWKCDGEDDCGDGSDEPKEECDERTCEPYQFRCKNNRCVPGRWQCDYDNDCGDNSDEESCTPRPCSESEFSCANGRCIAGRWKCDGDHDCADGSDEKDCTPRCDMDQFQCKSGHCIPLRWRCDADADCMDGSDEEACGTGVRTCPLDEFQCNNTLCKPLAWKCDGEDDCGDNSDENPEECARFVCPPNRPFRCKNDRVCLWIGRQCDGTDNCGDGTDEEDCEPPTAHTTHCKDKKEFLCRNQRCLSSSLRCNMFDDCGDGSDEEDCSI

Results are given in words; binding and its absence hold for the method and conditions named. Some results given as binding are weak or reduced against the parent protein; the word gives no strength.

In this test the target is cell surface calreticulin (human) (human) (UniProt P27797). As to the kind of experiment: flow cytometry on live staurosporine-treated Molm 13 cells, secondary anti-Fc antibody. In general terms: In flow cytometry, cells or beads pass a laser one at a time.

As to “LRP1 cluster IV-Fc protein (from UniProt Q07954 3332-3778) (Fc fusion)”, the binding result is recorded as “binds”.
